This is an account of results in paper PMC10960850.

Chains of the proteins cited; added tags and fusions are not shown.
UniProt P25911: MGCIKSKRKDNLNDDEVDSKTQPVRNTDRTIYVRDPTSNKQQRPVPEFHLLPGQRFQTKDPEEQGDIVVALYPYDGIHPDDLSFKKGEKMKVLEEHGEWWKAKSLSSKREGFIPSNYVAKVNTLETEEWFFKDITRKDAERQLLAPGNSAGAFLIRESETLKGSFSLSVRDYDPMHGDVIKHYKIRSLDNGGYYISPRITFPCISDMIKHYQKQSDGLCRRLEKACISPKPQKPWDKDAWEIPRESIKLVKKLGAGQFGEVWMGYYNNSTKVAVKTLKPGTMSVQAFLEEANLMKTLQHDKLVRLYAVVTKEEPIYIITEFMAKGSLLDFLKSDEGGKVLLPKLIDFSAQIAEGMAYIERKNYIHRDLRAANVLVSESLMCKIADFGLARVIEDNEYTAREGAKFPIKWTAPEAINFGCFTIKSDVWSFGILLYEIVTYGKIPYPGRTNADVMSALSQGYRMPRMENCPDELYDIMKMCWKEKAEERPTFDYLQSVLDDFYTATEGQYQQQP

These are yes or no findings as the source states them, for the method shown. Binding seen in cells or lysates may run through a third protein. Some binding calls cover weakened binding; strength is not graded here.

The target of this assay is LYN (mouse (endogenous in WT splenic B cells)) (UniProt P25911). Nature of the assay: co-IP; endogenous proteins; purified splenic B cells activated with sAg (0 and 5 min), lysed with RIPA buffer; lysate with 1 ug of the indicated antibody for 2 h, then protein G Sepharose overnight; beads washed with PBS; immunoblot for USP25.

B1: ubiquitin-specific protease 25 (USP25) (enzyme, UniProt P57080 1-1055)
chain: MTVEQNVLQQSAAQKHQQTFLNQLREITGINDAQILQQALKDSNGNLELAVAFLTAKNAKTPPQEETGYYQTALPGNDRYISVGSQADANVIDLTGDDKDDLQRAIALSLAESNRAFRETGITDEEQAISRVLEASIAENKACLKRTPIEVWRDSRNPYDRKRQEKAPVGLKNVGNTCWFSAVIQSLFNLLEFRRLVLNYKPPSNAQDLPRNQKEHRNLPFMRELRYLFALLVGTKRKYVDPSRAVEILKDAFKSNDSQQQDVSEFTHKLLDWLEDAFQMKAEEETDEEKPKNPMVELFYGRFLAMGVLEGKKFENTEMFGQYPLQVNGFKDLHECLEAAMIEGEIESLHSDNSGKSGQEHWFTELPPVLTFELSRFEFNQALGRPEKIHNKLEFPQVLYLDRYMHRNREITRIKREEIKRLKDYLTVLQQRLERYLSYGSGPKRFPLVDVLQYALEFASSKPVCTSPVDDIDASSSASGPLPSQSLPSTTEQQGPCASDLPGSSSPASGAALPLRSVIHKPFTQSRIPPDLPMHPAPRHITEEELCVLESCLHRWRTEIENDTRDLQESISRIHRTIELMYSDKSMIQVPYRLHAVLVHEGQANAGHYWAYIFDHRESRWMKYNDIAVTKSSWEELVRDSFGGYRNASAYCLMYIDDKAQFLIQEEFNKETGQALVGMETLPPDLRDFVEEDNQRFEKELEEWDTQLAQRSLQEKLLAAPKLREAEASATTAQAGGADYLEQPSRSDLSKHWKEETLRVIAKASHDLEDKGPETVLQSAIKLEYSRLVKLAQEDTPPETDYRLHHVLVYFIQNQAPKKIIEKTLLEQFGDRNLSFDERCHNIMKVAQAKLEMIKPEEVNLEEYEEWHADYKKFRETTMYLITGLENFQRESYIDSLLFLLCAYQNNKELLSKGPYRGHDGELISHYRRECLLKLNEQAAELFESGEDGDVNNGLIIMNEFIVPFLPLLLVDDMEEKDILAVEDMRNRWCSYLGQEMEANLQEKLTDFLPKLLDCSTEIKGFHEPPKLPSYSAHELCERFARIMLSLSRTPADGR
Consider B1, for which the binding entry is reported as “binds”.
